## Library screening results

Values are the deposited “Percent Effect”, in %. How 0% and 100% were set is not recorded. Most values in the screen are low, and negative values occur. This is an unselected part of the compounds tested. Two or more numbers in one place are separate tests of the same structure; such repeats can differ widely.

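Viability assay of Plasmodium falciparum sporozoites; the read-out is not stated. The concentration is filed as 10 mM, unlikely as a test dose, so the dose is not known. Higher reads as lower viability (inferred: compounds with an IC50 in retests scored well above the rest). Strong results were mostly tested again. About 34,000 compounds were tested under these conditions; 0.84% (about 280) showed 50% or more at least once.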

Cn1nccc1-c1ccc2nc(C3CCN(CC4CC4)CC3)nn2c1.O=C(O)C(F)(F)F.O=C(O)C(F)(F)F gave 4.047%. Result for CCOC(=O)c1sc2ccsc2c1CNC(=O)COC was -2.77%. For CC(=O)c1cccc(NC(=O)CN2CCCCC2C2OCCO2)c1 (centres unmarked) the result was -9.019%. Result for Cc1nn(C)c2c(NCc3cccnc3)nc(C3CC3)nc12 was -3.926%.

Result for Cc1nc(COCc2cnc3n2CCN(CC2CCC2)C3C)cs1.O=C(O)C(F)(F)F (centres unmarked) was -10.71%. Result for COc1c(C2CCCN2Cc2nnc(C3CC3)n2C)c(C)nn1C (centres unmarked) was -4.053%. Result for Cc1nc(N2CCCC(N3CCCC3)C2)c2cnn(C)c2n1 (centres unmarked) was -22.06%. Result for Cc1noc(C)c1CCC(=O)N1CCCC(n2cccn2)C1 (centres unmarked) was 16.82%.

For CCc1csc(C2CCCN(C(=O)c3cc(C4CC4)[nH]n3)C2)n1 (centres unmarked) the result was -4.554%. Result for Cc1cc(NC(=O)NCCc2cccs2)n(C)n1 was -2.016%. Result for Cc1ccc2nc(CN3CCCCC3C(=O)N3CCOCC3)cn2c1 (centres unmarked) was -7.878%. COCc1cc(O)nc(C2CCCN(Cc3ccc(OC)cc3)C2)n1 (centres unmarked) gave -6.862%.

Result for Cc1cnn(CC2CCCCN2CCCS(=O)(=O)N(C)C)c1 (centres unmarked) was -1.84%. COc1cccc(CN(C)CC(=O)NC2(C)CCS(=O)(=O)C2)c1 (centres unmarked) read 11.3%. With Cc1cc(C)n(CC2CCCN2CC(=O)N(C)Cc2ccco2)n1 (centres unmarked) the screen gave 15.71%. With Cn1ccc(C(=O)NC2CCC23CCN(Cc2cccnc2)CC3)c1.O=C(O)C(F)(F)F.O=C(O)C(F)(F)F (centres unmarked) the screen gave -30.4%.

With CN1CCCN(S(=O)(=O)c2cnn(C)c2)c2cc(Cl)ccc21 the screen gave 4.55%. With CC(C)N1CCC(Cc2cnc(-c3cccc(C(=O)O)c3)cn2)C1 (centres unmarked) the screen gave -20.97%. With CCC1CCCCN1C(=O)c1ccc2[nH]nnc2c1 (centres unmarked) the screen gave -8.343%. For Cc1nc(C2CCCN(C(=O)c3cccc4c3OCO4)C2)sc1C (centres unmarked) the result was -6.007% & -5.359% & 39.17%.

Cn1cc(CN2CCCN(C(=O)c3cc(Cl)cn3C)CC2)cn1 read -3.133%. With Cc1ccnc(C2CCN(S(=O)(=O)c3cn(C)cn3)CC2)n1 the screen gave 10.77%. With Cc1cnn(CC2CCCN2Cc2nnc(C(C)C)o2)c1 (centres unmarked) the screen gave 12.99%. For O=C(O)C(F)(F)F.O=C(O)C(F)(F)F.O=C(O)C(F)(F)F.[H][C@@]12CN(Cc3ccncc3)C[C@]1([H])[C@@H](OC)CCN2Cc1c(C)noc1C the result was -0.1733%.

Fc1cccc(N2CCCC3(C2)CN(c2ncccn2)CCO3)c1.O=C(O)C(F)(F)F.O=C(O)C(F)(F)F (centres unmarked) gave -11.51%. For [H][C@]12CC[C@]([H])(CN(Cc3cscn3)C1)N(Cc1cc(C(C)(C)C)[nH]n1)C2 the result was -9.692%. Result for CCC(O)CN1CCN(C(=O)c2sccc2C2CC2)CC1 (centres unmarked) was -1.148%. With COc1ccccc1-c1cccc(C2CCCN(C3CCOCC3)C2)n1 (centres unmarked) the screen gave 0%.

Cc1cccc(NC(=O)c2cnc(C3CCCNC3)cn2)n1 (centres unmarked) gave 4.473% & -18.26% & -18.86%. With O=C(Nc1cc(-c2ccccc2)on1)N1CC[C@H](O)C1 the screen gave -24.83% & -17.1%. Result for OCCN1CCN(Cc2coc(-c3cccc(F)c3)n2)CC1 was 54.21% & 25.11% & 15.42%. For CC(CNC(=O)Nc1ccc(N(C)C)nc1)Cn1cccn1 (centres unmarked) the result was -0.224%.

Cn1nc2c(cc1=O)CN(c1ncnc3ccsc13)CC2 read -9.257%. For Cc1nc2cc(=O)[nH]n2c(C)c1CC(=O)NCc1ccc(C#N)cc1 the result was 11.43%. Result for COC(=O)Cn1c(C)cc(=O)n2nc(-c3cccs3)nc12 was 4.45%. O=C(NCC1CCCO1)Nc1nnc(C(F)(F)F)s1 (centres unmarked) read -3.581%.

CS(=O)(=O)N1CCC2(CC1)CC(NCc1ccccn1)c1ccccc12 (centres unmarked) gave -9.283%. For Cc1cccnc1CNCC1(O)CCCN(CC2CCCCC2)C1=O (centres unmarked) the result was 7.173%. For Cc1cccc(=O)n1CCCNc1nc(N(C)C)nc2c1CCNCC2 the result was 4.353%. CO[C@@H]1CCC[C@@H](N(C)C(=O)c2cn3cc(C)ccc3n2)[C@H]1O read 10.88%.

Cn1cccc1C(=O)NCc1cn2c(n1)CN(Cc1ccccn1)CC2.O=C(O)C(F)(F)F.O=C(O)C(F)(F)F read 5.642%. With CCOCC1CN(C(=O)c2ccoc2C)Cc2cnn(C)c21 (centres unmarked) the screen gave 16.36%. Cl.Cn1ccnc1N1CCN(C(=O)Cc2ccc(F)cc2)CC1 read 3.464%. Result for CC(Nc1cccc(CN2CCOC2=O)c1)C(=O)Nc1ccccc1 (centres unmarked) was -0.4884%.

With Cc1nc(C2CCCN2C(=O)CC2CCCC2)ncc1C(N)=O (centres unmarked) the screen gave 1.537%.

The first 5 entries again:

Compound,effect
Cn1nccc1-c1ccc2nc(C3CCN(CC4CC4)CC3)nn2c1.O=C(O)C(F)(F)F.O=C(O)C(F)(F)F,4.047%
CCOC(=O)c1sc2ccsc2c1CNC(=O)COC,-2.77%
CC(=O)c1cccc(NC(=O)CN2CCCCC2C2OCCO2)c1 (centres unmarked),-9.019%
Cc1nn(C)c2c(NCc3cccnc3)nc(C3CC3)nc12,-3.926%
Cc1nc(COCc2cnc3n2CCN(CC2CCC2)C3C)cs1.O=C(O)C(F)(F)F (centres unmarked),-10.71%

From ChEMBL document CHEMBL3988442, “University of Dundee, Small-Polar-MMV Screening Library” (2021).